{"source": "PubChem BioAssay AID1259254 | NCATS, 2017", "test": "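Finding genes that stop cells copying their DNA twice in one cycle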 (primary screen)", "system": "human HCT116 colorectal cancer cells", "reagents": "single siRNA against human genes", "timing": "3 days", "read-out": "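Nuclei stained with Hoechst and imaged; cell-cycle phase assigned by DNA content; G2 share scaled per plate, non-targeting siRNA 0%, GMNN siRNA 100%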", "reading the numbers": "G2 robust z-score and G2 cells, % of GMNN control: higher = more G2 cells, more excess DNA replication", "rule for the call": "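Active siRNAs have a G2 robust z of 5 or more median absolute deviations over the median, which in these data means about 38% or higher of GMNN control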", "note": "In all, the deposit lists about 59,000 reagents; this is a part drawn at random. Over the whole deposit, about 1,550 (2.6%) were called active. 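G2 share is only a proxy for re-replication; each gene was hit by three separate siRNAs, and active genes were retested.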 The numbers tell different reagents against one gene apart. Further read-outs or replicates are left out here. Reagent sequences are not shown. Not given: the amount of reagent."}
{"target":"PAX6","siRNA no.":1,"G2 robust z-score":-1.17,"G2 cells, % of GMNN control":-5.3,"activity call":"inactive"}
{"target":"PAX6","siRNA no.":2,"G2 robust z-score":0.208,"G2 cells, % of GMNN control":4.43,"activity call":"inactive"}
{"target":"PAX6","siRNA no.":3,"G2 robust z-score":-0.492,"G2 cells, % of GMNN control":-0.491,"activity call":"inactive"}
{"target":"ZNF300","siRNA no.":1,"G2 robust z-score":-0.128,"G2 cells, % of GMNN control":2.07,"activity call":"inactive"}
{"target":"ZNF300","siRNA no.":2,"G2 robust z-score":1.42,"G2 cells, % of GMNN control":12.9,"activity call":"inactive"}
{"target":"ZNF300","siRNA no.":3,"G2 robust z-score":-0.504,"G2 cells, % of GMNN control":-0.58,"activity call":"inactive"}

2 neighbouring entries already listed, for reference:
{"target":"ZNF300","siRNA no.":2,"G2 robust z-score":1.42,"G2 cells, % of GMNN control":12.9,"activity call":"inactive"}
{"target":"ZNF300","siRNA no.":3,"G2 robust z-score":-0.504,"G2 cells, % of GMNN control":-0.58,"activity call":"inactive"}

Next reagents follow:
{"target":"PARD6A","siRNA no.":1,"G2 robust z-score":-0.344,"G2 cells, % of GMNN control":0.546,"activity call":"inactive"}
{"target":"PARD6A","siRNA no.":2,"G2 robust z-score":-0.549,"G2 cells, % of GMNN control":-0.893,"activity call":"inactive"}
{"target":"PARD6A","siRNA no.":3,"G2 robust z-score":0.438,"G2 cells, % of GMNN control":6.05,"activity call":"inactive"}
{"target":"SERPINI2","siRNA no.":1,"G2 robust z-score":0.34,"G2 cells, % of GMNN control":5.36,"activity call":"inactive"}
{"target":"SERPINI2","siRNA no.":2,"G2 robust z-score":0.0698,"G2 cells, % of GMNN control":3.46,"activity call":"inactive"}
{"target":"SERPINI2","siRNA no.":3,"G2 robust z-score":2.28,"G2 cells, % of GMNN control":19,"activity call":"inactive"}
{"target":"CALR","siRNA no.":1,"G2 robust z-score":-0.146,"G2 cells, % of GMNN control":1.94,"activity call":"inactive"}
{"target":"CALR","siRNA no.":2,"G2 robust z-score":3.08,"G2 cells, % of GMNN control":24.6,"activity call":"inactive"}
{"target":"CALR","siRNA no.":3,"G2 robust z-score":0.0818,"G2 cells, % of GMNN control":3.54,"activity call":"inactive"}
{"target":"WASHC4","siRNA no.":1,"G2 robust z-score":-0.627,"G2 cells, % of GMNN control":-1.45,"activity call":"inactive"}
{"target":"WASHC4","siRNA no.":2,"G2 robust z-score":0.426,"G2 cells, % of GMNN control":5.97,"activity call":"inactive"}
{"target":"WASHC4","siRNA no.":3,"G2 robust z-score":-0.738,"G2 cells, % of GMNN control":-2.22,"activity call":"inactive"}
